Laboratory results reported in patent US20100093865A1, “SULPHUR-LINKED COMPOUNDS FOR TREATING OPHTHALMIC DISEASES AND DISORDERS” (Acucela, Inc., priority 2008, published 2010).
Some results were stated once for a whole list of compounds, not compound by compound.

molecular target: T1, recombinant human RPE65 and LRAT (visual cycle isomerase) (Homo sapiens, UniProt Q16518); assay: Human in vitro isomerase inhibition assay; type: biochemical; settings: HEK293 homogenate expressing human RPE65 and LRAT, all-trans-retinol about 20 μM, CRALBP, 37° C., one hour; 11-cis-retinol by HPLC
T1 construct: expressed in transfected cells; host or cells: HEK293 cell clone (homogenate); CRALBP made in E. coli TOP10
T1 sequence (Q16518 2-533 limits assumed): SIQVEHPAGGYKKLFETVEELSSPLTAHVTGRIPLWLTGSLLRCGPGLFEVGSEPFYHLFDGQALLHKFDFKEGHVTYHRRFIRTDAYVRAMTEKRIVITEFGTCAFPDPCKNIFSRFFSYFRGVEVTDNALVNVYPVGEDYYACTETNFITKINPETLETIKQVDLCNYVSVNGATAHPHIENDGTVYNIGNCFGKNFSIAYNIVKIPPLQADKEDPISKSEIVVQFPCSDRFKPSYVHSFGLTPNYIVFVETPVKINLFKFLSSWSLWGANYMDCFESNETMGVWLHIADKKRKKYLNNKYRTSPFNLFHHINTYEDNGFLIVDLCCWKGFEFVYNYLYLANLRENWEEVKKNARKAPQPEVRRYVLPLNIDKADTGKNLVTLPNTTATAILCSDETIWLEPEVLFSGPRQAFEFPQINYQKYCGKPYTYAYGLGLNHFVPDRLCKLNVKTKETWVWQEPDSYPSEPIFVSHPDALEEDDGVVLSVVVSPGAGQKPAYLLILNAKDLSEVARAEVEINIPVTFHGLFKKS
Method: The capability of sulphur-linked compounds to inhibit the activity of a visual cycle isomerase was determined in vitro either in a human or bovine-based assay system.
Recombinant human apo cellular retinaldehyde-binding protein (CRALBP) was cloned and expressed according to standard methods in the molecular biology art (see Crabb et al., Protein Science 7:746-57 (1998); Crabb et al., J. Biol. Chem. 263:18688-92 (1988)). Briefly, total RNA was prepared from confluent ARPE19 cells (American Type Culture Collection, Manassas, Va.), cDNA was synthesized using an oligo(dT)12-18 primer, and then DNA encoding CRALBP was amplified by two sequential polymerase chain reactions (see Crabb et al., J. Biol. Chem. 263:18688-92 (1988); Intres, et al., J. Biol. Chem. 269:25411-18 (1994); GenBank Accession No. L34219.1). The PCR product was sub-cloned into pTrcHis2-TOPO TA vector according to the manufacturer's protocol (Invitrogen Inc., Carlsbad, Calif.; catalog no. K4400-01), and then the sequence was confirmed according to standard nucleotide sequencing techniques. Recombinant 6×His-tagged human CRALBP was expressed in One Shot TOP 10 chemically competent E. coli cells (Invitrogen), and the recombinant polypeptide was isolated from E. coli cell lysates by nickel affinity chromatography using nickel (Ni) Sepharose XK16-20 columns for HPLC (Amersham Bioscience, Pittsburgh, Pa.; catalog no. 17-5268-02). The purified 6×His-tagged human CRALBP was dialyzed against 10 mM bis-tris-Propane (BTP) and analyzed by SDS-PAGE. The molecular weight of the recombinant human CRALBP was approximately 39 kDal.
The concentration dependent effect of the compounds disclosed herein on the retinol isomerization reaction were evaluated with a recombinant human enzyme system. […] A homogenate of HEK293 cell clone expressing recombinant human RPE65 and LRAT were the source of the visual enzymes, and exogenous all-trans-retinol (about 20 μM) was used as the substrate. Recombinant human CRALBP (about 80 ug/mL) was added to enhance the formation of 11-cis-retinal. The 200 μL Bis-Tris Phosphate buffer (10 mM, pH 7.2) based reaction mixture also contains 0.5% BSA, and 1 mM NaPPi. In this assay, the reaction was carried out at 37° C. in duplicates for one hour and was terminated by addition of 300 μL methanol. The amount of reaction product, 11-cis-retinol, was measured by HPLC analysis following Heptane extraction of the reaction mixture. […] The ability of the compounds disclosed herein to inhibit isomerization reaction is quantified and the respective IC50 value is determined. Table 2 summarizes the IC50 values of all the compounds of the present disclosure. FIGS. 1-4 depict dose-dependent curves for the inhibition of human in vitro isomerase for Compounds 5, 11, 14, and 17 by. The production of 11-cis-retinol was measured at different doses of compound administration.

| Compound | IC50 (μM) |
| --- | --- |
| NCCC(=O)c1cccc(S(=O)(=O)CC2CCCCC2)c1 [Example 10, 3-amino-1-(3-(cyclohexylmethylsulfonyl)phenyl)propan-1-one] | ≦0.01 μM |
| [2H]C1([2H])C([2H])([2H])C([2H])([2H])C([2H])(CSc2cccc(C(=O)CCN)c2)C([2H])([2H])C1([2H])[2H] [Example 51, 3-amino-1-(3-((perdeuterocyclohexyl)methylthio)phenyl)propan-1-one] | ≦0.01 μM |
| NC/C=C/c1cccc(S(=O)(=O)CC2CCCCC2)c1 [Example 14, (E)-3-(3-(cyclohexylmethylsulfonyl)phenyl)prop-2-en-1-amine] | ≦0.01 μM |
| [2H]C([2H])(CN)C(O)c1cccc(S(=O)(=O)CC2CCCCC2)c1 (centres unmarked) [Example 54, 3-amino-1-(3-(cyclohexylmethylsulfonyl)phenyl)-2,2-dideuteropropan-1-ol] | ≦0.01 μM |
| [2H]C1([2H])C([2H])([2H])C([2H])([2H])C([2H])(CSc2cccc(C(O)CCN)c2)C([2H])([2H])C1([2H])[2H] (centres unmarked) [Example 53, 3-amino-1-(3-((perdeuterocyclohexyl)methylthio)phenyl)propan-1-ol] | ≦0.01 μM |
| [2H]C(O)(CCN)c1cccc(SCC2CCCCC2)c1 (centres unmarked) [Example 48, 3-amino-1-(3-(cyclohexylmethylthio)phenyl)-1-deuteropropan-1-ol] | ≦0.01 μM |
| NCC[C@@H](O)c1cccc(SCC2CCCCC2)c1 [Example 17, (R)-3-amino-1-(3-(cyclohexylmethylthio)phenyl)propan-1-ol] | ≦0.01 μM |
| [2H]C1([2H])C([2H])([2H])C([2H])([2H])C([2H])(CS(=O)(=O)c2cccc(C(=O)CCN)c2)C([2H])([2H])C1([2H])[2H] [Example 52, 3-amino-1-(3-((perdeuterocyclohexyl)methylsulfonyl)phenyl)propan-1-one] | ≦0.01 μM |
| CCCCSc1cccc([C@H](O)CCN)c1 [Example 18, (R)-3-amino-1-(3-(butylthio)phenyl)propan-1-ol] | ≦0.01 μM |
| NCCC(O)c1cccc(S(=O)(=O)CC2CCCCC2)c1 (centres unmarked) [Example 9, 3-amino-1-(3-(cyclohexylmethylsulfonyl)phenyl)propan-1-ol] | ≦0.01 μM |
| NCC#Cc1cccc(S(=O)(=O)CC2CCCCC2)c1 [Example 3, 3-(3-(cyclohexylmethylsulfonyl)phenyl)prop-2-yn-1-amine] | ≦0.01 μM |
